No constants are given. Whether binding was seen depends on the method and setting. Some entries that bind do so weakly or less than the wild type.

The chains behind the UniProt entries cited, without tags or fusion partners. Where a name states a change or a piece, a line headed by the entry shows the natural chain unless it says otherwise. Residues count along the entry.
UniProt P01137, residues 279-390: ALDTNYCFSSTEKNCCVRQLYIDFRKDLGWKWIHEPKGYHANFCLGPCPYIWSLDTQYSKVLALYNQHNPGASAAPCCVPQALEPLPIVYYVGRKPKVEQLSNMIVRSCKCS
UniProt Q6YHK3: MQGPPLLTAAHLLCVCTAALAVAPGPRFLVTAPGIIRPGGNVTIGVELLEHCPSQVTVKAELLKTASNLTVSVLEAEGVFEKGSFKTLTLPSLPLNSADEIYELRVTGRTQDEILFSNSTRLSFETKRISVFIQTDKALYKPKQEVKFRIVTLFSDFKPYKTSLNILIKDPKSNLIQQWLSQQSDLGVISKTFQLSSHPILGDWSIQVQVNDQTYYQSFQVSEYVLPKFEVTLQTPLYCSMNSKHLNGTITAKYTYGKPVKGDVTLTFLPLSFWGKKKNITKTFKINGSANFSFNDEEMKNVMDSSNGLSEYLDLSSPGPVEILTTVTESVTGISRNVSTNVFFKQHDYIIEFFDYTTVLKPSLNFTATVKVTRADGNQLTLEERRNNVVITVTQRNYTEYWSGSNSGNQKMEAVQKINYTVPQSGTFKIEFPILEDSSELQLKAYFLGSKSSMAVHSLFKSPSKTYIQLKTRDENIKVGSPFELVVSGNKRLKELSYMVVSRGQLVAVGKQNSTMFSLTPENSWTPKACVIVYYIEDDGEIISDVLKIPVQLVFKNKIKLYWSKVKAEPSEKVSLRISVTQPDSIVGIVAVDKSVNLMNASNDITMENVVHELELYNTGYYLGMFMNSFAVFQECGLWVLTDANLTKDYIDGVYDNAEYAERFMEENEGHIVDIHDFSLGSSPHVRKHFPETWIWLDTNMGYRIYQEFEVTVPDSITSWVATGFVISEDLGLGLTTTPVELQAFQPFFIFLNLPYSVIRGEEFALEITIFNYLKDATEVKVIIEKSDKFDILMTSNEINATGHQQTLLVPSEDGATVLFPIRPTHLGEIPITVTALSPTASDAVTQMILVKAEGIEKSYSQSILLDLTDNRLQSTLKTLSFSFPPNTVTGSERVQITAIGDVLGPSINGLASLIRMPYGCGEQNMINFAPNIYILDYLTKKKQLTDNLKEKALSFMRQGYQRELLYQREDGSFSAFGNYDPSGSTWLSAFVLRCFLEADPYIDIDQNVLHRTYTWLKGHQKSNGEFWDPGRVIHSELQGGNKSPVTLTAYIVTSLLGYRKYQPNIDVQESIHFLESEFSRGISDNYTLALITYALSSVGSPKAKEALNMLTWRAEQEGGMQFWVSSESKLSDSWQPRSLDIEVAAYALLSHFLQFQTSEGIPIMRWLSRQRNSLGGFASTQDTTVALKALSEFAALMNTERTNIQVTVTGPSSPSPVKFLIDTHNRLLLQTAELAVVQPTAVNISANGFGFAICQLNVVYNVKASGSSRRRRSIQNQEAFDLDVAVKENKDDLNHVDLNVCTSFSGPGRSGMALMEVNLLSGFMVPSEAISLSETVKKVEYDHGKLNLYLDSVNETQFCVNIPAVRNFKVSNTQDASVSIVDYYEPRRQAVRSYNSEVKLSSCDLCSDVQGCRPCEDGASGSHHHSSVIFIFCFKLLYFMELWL

Assay [1] deals with Transforming Growth Factor-β1 (TGF-β1) (UniProt P01137). Briefly: affinity labeling with 125I-TGF-β1, SDS-PAGE and autoradiography (FIG. 11).
For assay [2] the target is unchanged. The assay is described as follows: affinity cross-link labeling with 150 pM 125I-TGF-β1, with or without excess unlabeled TGF-β1; SDS-PAGE.
The target is the same in assay [3]. Briefly: affinity cross-link labeling of media of PIPLC-treated HaCaT cells with 125I-TGF-β1, SDS-PAGE, autoradiography; competitor: unlabeled TGF-β1.
For a further assay, the target named is T1, TGF-β2 (UniProt P61812).
T1 sequence (looked up): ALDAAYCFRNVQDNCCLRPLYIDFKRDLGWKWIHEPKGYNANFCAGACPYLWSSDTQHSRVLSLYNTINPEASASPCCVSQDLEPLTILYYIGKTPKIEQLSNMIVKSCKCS
The assay is described as follows: SPR (conclusions of Example 3).

As to “soluble endogenous CD109 released from the keratinocyte cell surface by PIPLC (150 kDa protein) (from UniProt Q6YHK3 22-1420) (receptor)”, the binding entry in assay [1], in assay [2] and in assay [3] was “binds” throughout.

Take “soluble CD109 protein (full-length recombinant CD109) (from UniProt Q6YHK3 22-1420) (receptor)”: the binding result in the assay with TGF-β2 is recorded as “binds”.

These data come from patent publication US20120079614A1.
